{"source": "PubChem BioAssay AID1259308 (NCATS, 2017)", "test": "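Knock-downs that increase output of a recombinant reporter protein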 (primary screen)", "cell system": "human HEK293 embryonic kidney cells stably expressing firefly luciferase (HEK-CMV-Luc2-Hygro)", "reagents": "single siRNA against human genes, 0.8 pmol siRNA per well", "time to read-out": "72 h", "detection": "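Luciferase light (ONE-Glo) measured on one replicate plate set and viability (CellTiter-Glo) on the other, scaled to a negative control siRNA, with robust z-scores and luciferase per cell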", "direction": "total luciferase, z-score: higher = more reporter protein produced", "call rule": "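Active when the median/MAD z-score for overall luciferase is greater than 3; a gene was taken forward for validation with new siRNAs if at least two of its three siRNAs passed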", "meaning of the calls": "active = raised luciferase; inactive = no rise", "note": "Shown is one part, drawn at random, of about 59,000 deposited reagents. About 1,510 of all reagents (2.6%) count as active. 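Calls use total luciferase alone and ignore viability, so some active siRNAs may act by altering cell number.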 The numbers tell different reagents against one gene apart. Further read-outs or replicates are left out here. Reagent sequences are not shown."}
{"gene symbol": "PSMB6", "siRNA no.": 1, "total luciferase, z-score": -1.2, "activity call": "inactive"}
{"gene symbol": "PSMB6", "siRNA no.": 2, "total luciferase, z-score": 0.785, "activity call": "inactive"}
{"gene symbol": "PSMB6", "siRNA no.": 3, "total luciferase, z-score": -0.0634, "activity call": "inactive"}
{"gene symbol": "TAAR2", "siRNA no.": 1, "total luciferase, z-score": 0.862, "activity call": "inactive"}
{"gene symbol": "TAAR2", "siRNA no.": 2, "total luciferase, z-score": -0.501, "activity call": "inactive"}
{"gene symbol": "TAAR2", "siRNA no.": 3, "total luciferase, z-score": -1.37, "activity call": "inactive"}
{"gene symbol": "PCCB", "siRNA no.": 1, "total luciferase, z-score": 1.38, "activity call": "inactive"}
{"gene symbol": "PCCB", "siRNA no.": 2, "total luciferase, z-score": -0.0714, "activity call": "inactive"}
{"gene symbol": "PCCB", "siRNA no.": 3, "total luciferase, z-score": -0.644, "activity call": "inactive"}
{"gene symbol": "NFKBIL1", "siRNA no.": 1, "total luciferase, z-score": 0.441, "activity call": "inactive"}
{"gene symbol": "NFKBIL1", "siRNA no.": 2, "total luciferase, z-score": -0.33, "activity call": "inactive"}
{"gene symbol": "NFKBIL1", "siRNA no.": 3, "total luciferase, z-score": 0.0956, "activity call": "inactive"}
{"gene symbol": "OR5V1", "siRNA no.": 1, "total luciferase, z-score": 0.536, "activity call": "inactive"}
{"gene symbol": "OR5V1", "siRNA no.": 2, "total luciferase, z-score": -0.959, "activity call": "inactive"}
{"gene symbol": "OR5V1", "siRNA no.": 3, "total luciferase, z-score": 0.62, "activity call": "inactive"}
{"gene symbol": "CENPF", "siRNA no.": 1, "total luciferase, z-score": 0.581, "activity call": "inactive"}
{"gene symbol": "CENPF", "siRNA no.": 2, "total luciferase, z-score": 1.13, "activity call": "inactive"}
{"gene symbol": "CENPF", "siRNA no.": 3, "total luciferase, z-score": 0.288, "activity call": "inactive"}
{"gene symbol": "MAST1", "siRNA no.": 1, "total luciferase, z-score": 0.586, "activity call": "inactive"}
{"gene symbol": "MAST1", "siRNA no.": 2, "total luciferase, z-score": 0.697, "activity call": "inactive"}
{"gene symbol": "MAST1", "siRNA no.": 3, "total luciferase, z-score": 0.852, "activity call": "inactive"}
{"gene symbol": "MYOD1", "siRNA no.": 1, "total luciferase, z-score": 1.99, "activity call": "inactive"}
{"gene symbol": "MYOD1", "siRNA no.": 2, "total luciferase, z-score": 0.434, "activity call": "inactive"}
{"gene symbol": "MYOD1", "siRNA no.": 3, "total luciferase, z-score": -0.117, "activity call": "inactive"}

A few values from the list:
Under “total luciferase, z-score”, TAAR2 #3 shows -1.37
Under “total luciferase, z-score”, PSMB6 #1 reads -1.2

Additional results:
{"gene symbol": "SNTB1", "siRNA no.": 1, "total luciferase, z-score": -0.652, "activity call": "inactive"}
{"gene symbol": "SNTB1", "siRNA no.": 2, "total luciferase, z-score": 0.108, "activity call": "inactive"}
{"gene symbol": "SNTB1", "siRNA no.": 3, "total luciferase, z-score": 0.417, "activity call": "inactive"}
{"gene symbol": "DCP2", "siRNA no.": 1, "total luciferase, z-score": 1.17, "activity call": "inactive"}
{"gene symbol": "DCP2", "siRNA no.": 2, "total luciferase, z-score": -0.658, "activity call": "inactive"}
{"gene symbol": "DCP2", "siRNA no.": 3, "total luciferase, z-score": 3.36, "activity call": "active"}
{"gene symbol": "MX1", "siRNA no.": 1, "total luciferase, z-score": -0.158, "activity call": "inactive"}
{"gene symbol": "MX1", "siRNA no.": 2, "total luciferase, z-score": 0.313, "activity call": "inactive"}
{"gene symbol": "MX1", "siRNA no.": 3, "total luciferase, z-score": 4.17, "activity call": "active"}
{"gene symbol": "C1QTNF8", "siRNA no.": 1, "total luciferase, z-score": 0.855, "activity call": "inactive"}
{"gene symbol": "C1QTNF8", "siRNA no.": 2, "total luciferase, z-score": -1.08, "activity call": "inactive"}
{"gene symbol": "C1QTNF8", "siRNA no.": 3, "total luciferase, z-score": -0.836, "activity call": "inactive"}
{"gene symbol": "ARNT", "siRNA no.": 1, "total luciferase, z-score": 1.73, "activity call": "inactive"}
{"gene symbol": "ARNT", "siRNA no.": 2, "total luciferase, z-score": 2.81, "activity call": "inactive"}
{"gene symbol": "ARNT", "siRNA no.": 3, "total luciferase, z-score": 0.353, "activity call": "inactive"}
{"gene symbol": "BANF1", "siRNA no.": 1, "total luciferase, z-score": -0.0841, "activity call": "inactive"}
{"gene symbol": "BANF1", "siRNA no.": 2, "total luciferase, z-score": 0.208, "activity call": "inactive"}
{"gene symbol": "BANF1", "siRNA no.": 3, "total luciferase, z-score": -0.398, "activity call": "inactive"}
